Test [1] addresses T1, C-terminally FLAG-tagged G2E3 (G2/M-phase-specific E3 ubiquitin ligase) (UniProt Q7L622).
T1 sequence: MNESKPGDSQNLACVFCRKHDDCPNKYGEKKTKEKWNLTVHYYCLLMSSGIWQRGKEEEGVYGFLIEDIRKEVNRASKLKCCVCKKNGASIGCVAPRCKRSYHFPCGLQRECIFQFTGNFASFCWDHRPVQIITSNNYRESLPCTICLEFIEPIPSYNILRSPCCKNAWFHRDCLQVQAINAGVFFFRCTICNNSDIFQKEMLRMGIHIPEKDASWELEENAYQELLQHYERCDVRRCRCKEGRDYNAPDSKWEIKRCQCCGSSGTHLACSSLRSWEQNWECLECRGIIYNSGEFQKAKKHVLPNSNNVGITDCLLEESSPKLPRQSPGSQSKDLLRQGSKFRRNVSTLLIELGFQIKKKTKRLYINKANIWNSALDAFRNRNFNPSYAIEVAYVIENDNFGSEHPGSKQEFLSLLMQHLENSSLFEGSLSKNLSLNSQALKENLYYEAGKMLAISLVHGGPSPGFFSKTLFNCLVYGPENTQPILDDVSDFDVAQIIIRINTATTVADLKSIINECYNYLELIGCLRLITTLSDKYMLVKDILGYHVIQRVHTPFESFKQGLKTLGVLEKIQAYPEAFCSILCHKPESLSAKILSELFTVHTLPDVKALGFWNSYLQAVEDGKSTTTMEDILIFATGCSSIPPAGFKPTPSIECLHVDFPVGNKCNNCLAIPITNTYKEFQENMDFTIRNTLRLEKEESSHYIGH
Briefly: co-IP; HEK293TN cells (text: HEK293T) transfected with G2E3-FLAG or empty FLAG plasmid, 48 h; lysed in RIPA buffer; Pierce Co-IP kit; endogenous partners detected by immunoblot. A general note: In western blotting, separated proteins are transferred to a membrane and probed.

Chains of the proteins cited; added tags and fusions are not shown.
UniProt O95166: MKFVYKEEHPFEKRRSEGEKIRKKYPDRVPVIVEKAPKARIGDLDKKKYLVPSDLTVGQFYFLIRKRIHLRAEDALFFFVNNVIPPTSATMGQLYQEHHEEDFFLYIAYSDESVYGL

The target in test [2] is T1, C-terminally FLAG-tagged G2E3 (G2/M-phase-specific E3 ubiquitin ligase). Description: co-IP; AsPC-1 cells transfected with G2E3-FLAG or empty FLAG plasmid, 48 h; lysed in RIPA buffer; Pierce Co-IP kit; endogenous partners detected by immunoblot.

Results are given in words; binding and its absence hold for the method and conditions named. Binding seen in cells or lysates may run through a third protein. Some results given as binding are weak or reduced against the parent protein; the word gives no strength. Sequences can lack the tags named with a protein.

Take GABARAP (from UniProt O95166 1-117): the binding entry in test [1] and in test [2] was “binds” in each case.

The record behind these values is publication PMC12511632.
